According to patent publication US6429286B1, “Immunoregulatory molecules for costimulatory signal transduction” (priority 1997, dated 2002):
Results are given in words; binding and its absence hold for the method and conditions named. Some results given as binding are weak or reduced against the parent protein; the word gives no strength.

Biological target: human CD80-Ig (human) (UniProt P33681+P01857)
Test: ELISA, F2 phage coated, human CD80-Ig in solution, as in Example 7

B1: phage expressing F2 sequence (peptide)
chain: ADGAGFVCSGIFAVGVGRCGAAGAETVESCLAKPHTENSFTNVWKDDKTLDRYANYEGCLWNATGVVVCTGDETQCYGTWVPIGLAIPENEGGGSEGGGSEGGGSEGGGTKPPEYGDTPIPGYTYINPLDGTYPPGTEQNPANPNPSLEESQPLNTFMFQNNRFRNRQGALTVYTGTVTQGTDPVKTYYQYTPVSSKAMYDAYWNGKFRDCAFHSGFNEDPFVCEYQGQSSDLPQPPVNAGGGSGGGSGGGSEGGGSEGGGSEGGGSEGGGSGGGSGSGDFDYEKMANANKGAMTENADENALQSDAKGKLDSVATDYGAAIDGFIGDVSGLANGNGATGDFAGSNSQMAQVGDGDNSPLMNNFRQYLPSLPQSVECRPYVFGAGKPYEFSIDCDKINLFRGVFAFLLYVATFMYVFSTFANILRNKES
notes: also called F2 phage
binding: binds
